According to patent publication US7285621B2, “Multiple branch peptide construction” (Ambrilia Biopharma, priority 1999, dated 2007):
Like-named read-outs stand apart in the source and are kept apart here. Part of at least one peptide drawing is inferred or uncertain, most often the ends.

Columns and labels:
[1] = tested on: H × 10 (HIV-1) strain
Protocol: SPC3 is (GPGRAF)8-(K)4-(K)2-K-βA-OH as disclosed in WO95/07929. D4 and D5 refer to days 4 and 5 of the experiment. OD stands for Optical Density. N.B. Experiments were performed with non diluted virus solution.

[2] = tested on: HIV-1 W5A2A9 isolate; assay: Inhibition of clinical isolates infectivity; assay type: cell-based; details: non-diluted virus solution
Source text: The gp41-derived MBPCs of the invention have been tested in vitro for their ability to inhibit HIV-induced syncytium formation, and infection of human lymphocytes by both HIV-1 and HIV-2 viruses (several laboratory strains including LAV-2B, an HIV-2 virus able to infect some CD4^−/GalCer^− cells, as well as clinical isolates such as JRCSF, P16/B6 and P16/C9). […] Similar results were obtained with other HIV strains and clinical isolates tested so far.
Example shown is the HIV-1 W5A2A9 isolate. N.B. Experiments were performed with non-diluted virus solution.

[3] = tested on: HIV-1 and HIV-2 viruses; assay: In vitro inhibition of HIV-induced syncytium formation and infection of human lymphocytes; assay type: cell-based; details: HIV-1 and HIV-2 laboratory strains and clinical isolates

## CC(C)C[C@H](NC(=O)[C@@H]1CCCN1C(=O)[C@H](CO)NC(=O)[C@H](Cc1ccc(O)cc1)NC(=O)CNC(=O)[C@H](CCC(N)=O)NC(=O)[C@@H](N)CCCNC(=N)N)C(=O)NCCCC[C@H](NC(=O)[C@H](CC(C)C)NC(=O)[C@@H]1CCCN1C(=O)[C@H](CO)NC(=O)[C@H](Cc1ccc(O)cc1)NC(=O)CNC(=O)[C@H](CCC(N)=O)NC(=O)[C@@H](N)CCCNC(=N)N)C(=O)NCCCC[C@H](NC(=O)[C@H](CCCCNC(=O)[C@H](CC(C)C)NC(=O)[C@@H]1CCCN1C(=O)[C@H](CO)NC(=O)[C@H](Cc1ccc(O)cc1)NC(=O)CNC(=O)[C@H](CCC(N)=O)NC(=O)[C@@H](N)CCCNC(=N)N)NC(=O)[C@H](CC(C)C)NC(=O)[C@@H]1CCCN1C(=O)[C@H](CO)NC(=O)[C@H](Cc1ccc(O)cc1)NC(=O)CNC(=O)[C@H](CCC(N)=O)NC(=O)[C@@H](N)CCCNC(=N)N)C(=O)NCCCC[C@H](NC(=O)[C@H](CCCCNC(=O)[C@H](CCCCNC(=O)[C@H](CC(C)C)NC(=O)[C@@H]1CCCN1C(=O)[C@H](CO)NC(=O)[C@H](Cc1ccc(O)cc1)NC(=O)CNC(=O)[C@H](CCC(N)=O)NC(=O)[C@@H](N)CCCNC(=N)N)NC(=O)[C@H](CC(C)C)NC(=O)[C@@H]1CCCN1C(=O)[C@H](CO)NC(=O)[C@H](Cc1ccc(O)cc1)NC(=O)CNC(=O)[C@H](CCC(N)=O)NC(=O)[C@@H](N)CCCNC(=N)N)NC(=O)[C@H](CCCCNC(=O)[C@H](CC(C)C)NC(=O)[C@@H]1CCCN1C(=O)[C@H](CO)NC(=O)[C@H](Cc1ccc(O)cc1)NC(=O)CNC(=O)[C@H](CCC(N)=O)NC(=O)[C@@H](N)CCCNC(=N)N)NC(=O)[C@H](CC(C)C)NC(=O)[C@@H]1CCCN1C(=O)[C@H](CO)NC(=O)[C@H](Cc1ccc(O)cc1)NC(=O)CNC(=O)[C@H](CCC(N)=O)NC(=O)[C@@H](N)CCCNC(=N)N)C(=O)NCCC(=O)O [RL1, (RQGYSPL)8-(K)4-(K)2-K-βA-OH]
[1]; Molarity 1 × 10^−5, day 4, non diluted virus solution
  p24: 0.8877 ng/mL
[1]; Molarity 1 × 10^−6, day 4, non diluted virus solution
  p24: 3.026 ng/mL
[1]; Molarity 5 × 10^−5, day 4, non diluted virus solution
  p24: 0.04201 ng/mL
[1]; Molarity 5 × 10^−5, day 5, non diluted virus solution
  p24: 0.009482 ng/mL
[1]; Molarity 5 × 10^−6, day 4, non diluted virus solution
  p24: 1.695 ng/mL
[2]; [conc] 1 × 10^−5, HIV-1 W5A2A9 isolate
  Inhibition (%) of clinical isolates infectivity: 89.3%
[2]; [conc] 1 × 10^−6, HIV-1 W5A2A9 isolate
  Inhibition (%) of clinical isolates infectivity: 67.1%
[2]; [conc] 1 × 10^−7, HIV-1 W5A2A9 isolate
  Inhibition (%) of clinical isolates infectivity: 18.3%
[2]; [conc] 5 × 10^−6, HIV-1 W5A2A9 isolate
  Inhibition (%) of clinical isolates infectivity: 70.0%
[2]; [conc] 5 × 10^−7, HIV-1 W5A2A9 isolate
  Inhibition (%) of clinical isolates infectivity: 40.8%
[2]; [conc] 5 × 10^−8, HIV-1 W5A2A9 isolate
  Inhibition (%) of clinical isolates infectivity: 0%
[3]
  antiviral properties (HIV-induced syncytium formation, infection of human lymphocytes): potent antiviral properties in all tests
